Laboratory results published in patent publication US20230331817A1 (The Regents of the University of California, priority 2020, published 2023).
No constants are given. Whether binding was seen depends on the method and setting. Some binding calls cover weakened binding; strength is not graded here.

Protein sequences, listed by entry. Tags and fused reporters are not part of them. Lines headed by an entry give the natural chain unless they say otherwise; changes in a name come on top. Chains listed by the source or under a name are the forms on record and can include a tag or linker.
DIP-δplasmin (P00747, form named): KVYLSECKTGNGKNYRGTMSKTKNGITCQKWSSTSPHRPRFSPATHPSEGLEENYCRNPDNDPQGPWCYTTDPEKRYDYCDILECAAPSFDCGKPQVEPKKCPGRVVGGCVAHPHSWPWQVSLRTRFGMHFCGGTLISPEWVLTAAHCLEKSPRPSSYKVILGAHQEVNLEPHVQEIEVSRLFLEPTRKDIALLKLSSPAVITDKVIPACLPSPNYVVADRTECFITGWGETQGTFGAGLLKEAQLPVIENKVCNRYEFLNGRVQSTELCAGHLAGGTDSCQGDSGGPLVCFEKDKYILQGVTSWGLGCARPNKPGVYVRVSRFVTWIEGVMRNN

Experiments:
[1] = target: T1, DIP-δplasmin (UniProt P00747 97-810, limits assumed, active site blocked with diisopropylfluorophosphate (DFP)); experiment: SPR (FIG. 13)
T1 construct: domain: protease domain and the first kringle domain; immobilised on a CM5 chip

[2] = target: T1, DIP-δplasmin; experiment: SPR (Biacore T100), DIP-δplasmin amine-coupled to a CM5 chip, KD1-Y11T/L17R-KT as analyte [A]

B1: KD1-Y11T/L17R-KT (Pichia) (designed binder)
chain: NAEICLLPLDTGPCRARLLRYYYDRYTQSCRQFLYGGCEGNANNFYTWEACDDACWRIEK
notes: 60-residue double mutant without tag; also called KD1DM; P. pastoris expressed KD1-Y11T/L17R-KT
[1]
  binding: binds
[2]
  binding: binds
